The list shows a part of the results.
Legend:
Assay in all cases: log2 fold change, soluble protein after heating vs DMSO (PISA); higher = thermal stabilisation; K562 cells, 10 uM, 30 min; active = over 0.2 and 3.5 SD of the protein, either way, in both replicates (recomputed)
[1] = compound: CC1=C(C=C(C=C1)NC(=O)C2=CC(=CC=C2)C(C)(C)C#N)NC3=CC4=C(C=C3)N=CN(C4=O)C
Outline: (§1)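 Soluble protein was defined as the supernatant after 21,000xg for 90 min. It came from K562 cells at 2×10^6 cells/mL given 10 μM compound for 30 min, heated in aliquots for 3 min across 48°C-58°C, pooled, and extracted in PBS with 0.5% NP-40 at 4°C, and was quantified by TMTpro 16plex LC-MS/MS with equalised channel sums. Thermal stability against control samples, from duplicates, is reported as log2 fold change.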

Chains of the proteins cited; added tags and fusions are not shown. Lines headed by an entry give the natural chain unless they say otherwise; changes in a name come on top.
UniProt Q9NZL9, whole entry, looked up: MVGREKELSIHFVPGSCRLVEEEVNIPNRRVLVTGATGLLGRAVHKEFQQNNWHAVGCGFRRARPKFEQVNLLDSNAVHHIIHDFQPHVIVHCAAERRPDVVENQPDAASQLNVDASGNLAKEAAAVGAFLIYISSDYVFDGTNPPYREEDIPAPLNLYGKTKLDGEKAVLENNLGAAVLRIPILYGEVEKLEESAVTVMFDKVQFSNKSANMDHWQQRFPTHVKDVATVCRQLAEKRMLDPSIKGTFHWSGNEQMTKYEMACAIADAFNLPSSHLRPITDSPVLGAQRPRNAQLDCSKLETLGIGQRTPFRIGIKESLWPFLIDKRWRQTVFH
UniProt Q9UBP6: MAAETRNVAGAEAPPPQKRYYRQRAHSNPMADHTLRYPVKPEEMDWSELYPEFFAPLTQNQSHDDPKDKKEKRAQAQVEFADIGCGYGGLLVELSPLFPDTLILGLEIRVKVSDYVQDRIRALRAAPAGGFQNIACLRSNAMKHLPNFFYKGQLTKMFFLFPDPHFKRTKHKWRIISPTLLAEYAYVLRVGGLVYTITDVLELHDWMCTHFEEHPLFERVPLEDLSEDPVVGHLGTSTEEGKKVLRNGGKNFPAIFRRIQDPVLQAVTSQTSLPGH
UniProt Q96RQ3: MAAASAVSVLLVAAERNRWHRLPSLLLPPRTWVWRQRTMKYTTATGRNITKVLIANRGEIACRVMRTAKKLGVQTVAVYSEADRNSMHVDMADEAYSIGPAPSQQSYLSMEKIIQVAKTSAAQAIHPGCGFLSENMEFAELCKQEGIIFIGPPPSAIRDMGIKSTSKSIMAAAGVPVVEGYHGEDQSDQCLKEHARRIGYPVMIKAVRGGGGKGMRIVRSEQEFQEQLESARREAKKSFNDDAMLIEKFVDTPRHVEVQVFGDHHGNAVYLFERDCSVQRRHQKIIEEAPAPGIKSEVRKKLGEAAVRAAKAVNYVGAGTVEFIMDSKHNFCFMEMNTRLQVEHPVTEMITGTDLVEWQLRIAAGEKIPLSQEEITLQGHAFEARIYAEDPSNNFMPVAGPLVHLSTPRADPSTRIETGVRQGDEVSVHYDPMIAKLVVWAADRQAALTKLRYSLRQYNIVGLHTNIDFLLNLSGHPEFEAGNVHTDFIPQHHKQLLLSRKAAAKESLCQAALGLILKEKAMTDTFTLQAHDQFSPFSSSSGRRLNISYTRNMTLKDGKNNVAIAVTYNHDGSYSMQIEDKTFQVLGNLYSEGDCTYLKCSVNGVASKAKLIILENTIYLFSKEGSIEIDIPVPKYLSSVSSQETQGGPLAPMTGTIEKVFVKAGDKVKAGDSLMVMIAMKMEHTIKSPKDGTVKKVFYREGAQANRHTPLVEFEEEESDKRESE
UniProt O60244: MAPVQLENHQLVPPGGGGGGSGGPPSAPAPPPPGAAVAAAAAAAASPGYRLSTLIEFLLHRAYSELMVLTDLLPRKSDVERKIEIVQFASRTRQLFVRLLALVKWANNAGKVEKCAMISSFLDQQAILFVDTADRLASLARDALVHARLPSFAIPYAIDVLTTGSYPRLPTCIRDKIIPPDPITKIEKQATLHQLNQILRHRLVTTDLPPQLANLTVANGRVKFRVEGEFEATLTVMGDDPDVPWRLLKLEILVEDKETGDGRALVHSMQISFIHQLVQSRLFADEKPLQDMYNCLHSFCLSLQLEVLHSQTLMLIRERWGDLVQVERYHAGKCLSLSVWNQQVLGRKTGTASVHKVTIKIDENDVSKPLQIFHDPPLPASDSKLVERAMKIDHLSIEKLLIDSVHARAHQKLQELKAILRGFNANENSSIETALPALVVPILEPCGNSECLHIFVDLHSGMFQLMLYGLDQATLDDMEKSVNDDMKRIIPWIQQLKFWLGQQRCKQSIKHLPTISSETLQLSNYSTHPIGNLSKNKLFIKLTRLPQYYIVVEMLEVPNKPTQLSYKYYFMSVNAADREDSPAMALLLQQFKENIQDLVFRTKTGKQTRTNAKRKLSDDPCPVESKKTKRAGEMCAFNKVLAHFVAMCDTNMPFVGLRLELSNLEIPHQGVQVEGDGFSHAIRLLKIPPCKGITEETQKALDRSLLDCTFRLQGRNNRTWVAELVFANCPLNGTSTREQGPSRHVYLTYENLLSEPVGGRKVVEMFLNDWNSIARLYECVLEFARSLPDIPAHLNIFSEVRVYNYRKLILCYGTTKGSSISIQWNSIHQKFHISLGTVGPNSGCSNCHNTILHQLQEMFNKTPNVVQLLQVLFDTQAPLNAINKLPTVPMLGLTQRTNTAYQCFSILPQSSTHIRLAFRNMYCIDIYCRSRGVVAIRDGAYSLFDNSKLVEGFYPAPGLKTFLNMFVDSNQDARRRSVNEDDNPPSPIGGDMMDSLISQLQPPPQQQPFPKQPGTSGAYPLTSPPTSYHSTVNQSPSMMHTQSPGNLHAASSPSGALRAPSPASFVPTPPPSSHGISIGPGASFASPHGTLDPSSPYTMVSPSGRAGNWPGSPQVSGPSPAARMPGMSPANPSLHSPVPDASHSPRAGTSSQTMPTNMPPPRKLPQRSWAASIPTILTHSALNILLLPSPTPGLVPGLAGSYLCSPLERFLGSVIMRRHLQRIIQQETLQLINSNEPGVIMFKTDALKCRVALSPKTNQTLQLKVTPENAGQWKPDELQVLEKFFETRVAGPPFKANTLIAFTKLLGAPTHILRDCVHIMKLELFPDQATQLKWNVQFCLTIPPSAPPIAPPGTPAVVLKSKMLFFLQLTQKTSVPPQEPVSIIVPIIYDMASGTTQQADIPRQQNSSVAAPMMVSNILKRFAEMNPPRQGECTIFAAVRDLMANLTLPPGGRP
UniProt Q86V88: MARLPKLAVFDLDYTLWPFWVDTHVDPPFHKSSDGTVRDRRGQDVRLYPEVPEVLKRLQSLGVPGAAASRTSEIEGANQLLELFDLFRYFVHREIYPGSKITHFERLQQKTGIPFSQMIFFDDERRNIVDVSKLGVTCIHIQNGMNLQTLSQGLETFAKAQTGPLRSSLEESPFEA
UniProt Q5JRA6: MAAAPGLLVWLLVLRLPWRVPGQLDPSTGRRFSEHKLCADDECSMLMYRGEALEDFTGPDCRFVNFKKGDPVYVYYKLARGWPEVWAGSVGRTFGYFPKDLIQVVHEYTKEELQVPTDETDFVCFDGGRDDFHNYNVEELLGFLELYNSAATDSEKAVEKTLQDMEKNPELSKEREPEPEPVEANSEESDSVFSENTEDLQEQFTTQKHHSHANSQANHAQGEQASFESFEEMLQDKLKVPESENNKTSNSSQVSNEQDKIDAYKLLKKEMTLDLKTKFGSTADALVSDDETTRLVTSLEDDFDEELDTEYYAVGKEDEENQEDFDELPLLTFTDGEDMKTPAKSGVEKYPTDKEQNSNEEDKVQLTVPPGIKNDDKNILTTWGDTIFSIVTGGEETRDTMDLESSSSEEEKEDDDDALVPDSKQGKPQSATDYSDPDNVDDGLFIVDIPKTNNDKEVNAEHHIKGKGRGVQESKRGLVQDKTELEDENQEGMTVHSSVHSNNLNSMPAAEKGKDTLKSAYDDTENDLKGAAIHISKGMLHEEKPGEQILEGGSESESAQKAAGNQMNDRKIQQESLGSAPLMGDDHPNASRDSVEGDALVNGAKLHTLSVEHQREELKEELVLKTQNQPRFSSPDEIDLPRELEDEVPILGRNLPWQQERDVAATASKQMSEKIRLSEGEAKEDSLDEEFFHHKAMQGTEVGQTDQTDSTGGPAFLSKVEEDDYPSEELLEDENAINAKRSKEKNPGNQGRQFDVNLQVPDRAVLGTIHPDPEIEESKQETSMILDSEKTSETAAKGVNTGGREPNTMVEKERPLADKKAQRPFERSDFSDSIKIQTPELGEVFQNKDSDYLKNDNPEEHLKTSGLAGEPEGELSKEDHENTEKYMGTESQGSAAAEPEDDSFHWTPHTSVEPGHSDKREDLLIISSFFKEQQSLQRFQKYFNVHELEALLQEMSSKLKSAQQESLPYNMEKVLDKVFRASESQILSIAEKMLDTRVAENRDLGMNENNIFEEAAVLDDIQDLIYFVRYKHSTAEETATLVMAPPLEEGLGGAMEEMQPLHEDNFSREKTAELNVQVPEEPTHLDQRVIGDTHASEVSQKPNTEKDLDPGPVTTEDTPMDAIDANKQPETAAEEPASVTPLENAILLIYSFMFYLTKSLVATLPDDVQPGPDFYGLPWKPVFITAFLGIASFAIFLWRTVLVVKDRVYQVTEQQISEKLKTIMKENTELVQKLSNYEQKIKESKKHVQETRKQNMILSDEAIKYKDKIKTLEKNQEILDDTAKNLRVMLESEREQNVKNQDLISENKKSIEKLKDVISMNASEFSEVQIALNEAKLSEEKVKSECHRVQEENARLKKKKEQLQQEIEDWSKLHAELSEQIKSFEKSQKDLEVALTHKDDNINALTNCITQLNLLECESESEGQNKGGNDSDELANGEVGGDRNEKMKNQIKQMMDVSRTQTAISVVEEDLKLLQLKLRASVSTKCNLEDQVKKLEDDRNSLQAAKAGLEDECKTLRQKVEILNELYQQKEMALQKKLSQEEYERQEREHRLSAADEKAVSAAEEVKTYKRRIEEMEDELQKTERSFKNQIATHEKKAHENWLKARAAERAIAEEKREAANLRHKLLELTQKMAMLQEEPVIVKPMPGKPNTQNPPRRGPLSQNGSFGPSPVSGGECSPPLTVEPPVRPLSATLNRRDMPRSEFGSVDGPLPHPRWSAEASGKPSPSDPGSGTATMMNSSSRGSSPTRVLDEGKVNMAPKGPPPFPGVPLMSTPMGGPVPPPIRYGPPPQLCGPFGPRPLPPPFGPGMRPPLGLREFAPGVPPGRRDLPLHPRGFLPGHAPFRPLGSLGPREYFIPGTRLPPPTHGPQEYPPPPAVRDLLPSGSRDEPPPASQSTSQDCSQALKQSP
UniProt Q00266: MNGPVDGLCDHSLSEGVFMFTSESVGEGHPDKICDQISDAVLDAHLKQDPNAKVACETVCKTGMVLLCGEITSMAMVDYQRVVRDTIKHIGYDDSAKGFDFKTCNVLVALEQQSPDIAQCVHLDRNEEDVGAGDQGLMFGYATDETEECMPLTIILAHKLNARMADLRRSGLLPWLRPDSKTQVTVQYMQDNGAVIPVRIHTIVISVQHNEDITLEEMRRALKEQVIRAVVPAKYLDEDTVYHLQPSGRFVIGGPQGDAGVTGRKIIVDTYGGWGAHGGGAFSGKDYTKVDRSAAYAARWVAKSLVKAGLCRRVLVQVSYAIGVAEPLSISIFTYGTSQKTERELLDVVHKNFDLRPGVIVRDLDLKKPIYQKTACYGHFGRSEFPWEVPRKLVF
UniProt Q9BV79: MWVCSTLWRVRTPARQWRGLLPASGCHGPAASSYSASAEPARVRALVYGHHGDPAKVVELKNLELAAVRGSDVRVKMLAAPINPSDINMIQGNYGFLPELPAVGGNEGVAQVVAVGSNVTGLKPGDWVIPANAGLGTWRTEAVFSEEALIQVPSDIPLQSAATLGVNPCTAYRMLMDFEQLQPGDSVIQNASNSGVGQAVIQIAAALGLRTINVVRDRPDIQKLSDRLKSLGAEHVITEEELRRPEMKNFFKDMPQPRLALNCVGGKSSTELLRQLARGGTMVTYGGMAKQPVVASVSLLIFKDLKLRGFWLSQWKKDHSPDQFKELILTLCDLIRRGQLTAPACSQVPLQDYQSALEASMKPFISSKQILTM
UniProt P49736, whole entry, looked up: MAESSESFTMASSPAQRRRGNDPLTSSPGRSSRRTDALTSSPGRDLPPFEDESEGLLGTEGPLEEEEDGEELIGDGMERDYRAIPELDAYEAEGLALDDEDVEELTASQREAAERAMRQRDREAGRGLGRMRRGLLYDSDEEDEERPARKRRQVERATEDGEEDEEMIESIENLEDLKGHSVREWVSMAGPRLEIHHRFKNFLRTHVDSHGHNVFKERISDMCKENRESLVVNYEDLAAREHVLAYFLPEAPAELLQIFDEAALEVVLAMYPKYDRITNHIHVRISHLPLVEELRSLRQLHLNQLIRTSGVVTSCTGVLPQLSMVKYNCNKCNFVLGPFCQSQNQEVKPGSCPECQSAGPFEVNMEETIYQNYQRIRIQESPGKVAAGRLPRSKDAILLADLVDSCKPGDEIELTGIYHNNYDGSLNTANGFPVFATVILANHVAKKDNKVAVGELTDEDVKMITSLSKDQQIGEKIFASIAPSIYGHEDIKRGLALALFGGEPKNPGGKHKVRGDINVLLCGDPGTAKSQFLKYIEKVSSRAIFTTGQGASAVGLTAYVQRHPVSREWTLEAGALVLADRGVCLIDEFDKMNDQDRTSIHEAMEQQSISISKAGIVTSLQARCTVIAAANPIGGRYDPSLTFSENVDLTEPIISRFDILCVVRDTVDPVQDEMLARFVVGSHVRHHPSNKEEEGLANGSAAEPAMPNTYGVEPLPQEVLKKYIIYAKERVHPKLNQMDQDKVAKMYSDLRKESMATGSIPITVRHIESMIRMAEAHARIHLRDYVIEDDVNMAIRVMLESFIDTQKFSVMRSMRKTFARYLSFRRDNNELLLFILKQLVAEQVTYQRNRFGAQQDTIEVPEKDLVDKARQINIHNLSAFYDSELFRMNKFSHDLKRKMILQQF

[2] = compound: CC1=C(C=C(C=C1)NC(=O)C2=CC(=CC=C2)N(C)C)NC(=O)C3=CC=C(C=C3)O
Outline: as §1

[3] = compound: CC1=CC=C(C=C1)SC2=C3C=C(SC3=CN=C2)C(=O)N
Outline: as §1

[4] = compound: CC1=NC(=CC=C1)C2=C(N=C(N2)C(C)(C)C)C3=CC4=NC=CN=C4C=C3
Outline: as §1

Nexturastat A = compound: CCCCN(Cc1ccc(C(=O)NO)cc1)C(=O)Nc1ccccc1 [Nexturastat A]
Outline: as §1

vemurafenib = compound: CCCS(=O)(=O)Nc1ccc(F)c(C(=O)c2c[nH]c3ncc(-c4ccc(Cl)cc4)cc23)c1F [vemurafenib]
Outline: as §1

[5] = compound: CCCS(=O)(=O)Nc1ccc(F)c(C(=O)c2c[nH]c3ncc(Cl)cc23)c1F
Outline: as §1

[6] = compound: CCCc1cc(C)[nH]c(=O)c1CNC(=O)c1cc(-c2ccnc(N3CCN(C)CC3)c2)cc2c1cnn2C(C)C
Outline: as §1

givinostat = compound: CCN(CC)Cc1ccc2cc(COC(=O)Nc3ccc(C(=O)NO)cc3)ccc2c1 [givinostat]
Outline: as §1

barasertib = compound: CCN(CCCOc1ccc2c(Nc3cc(CC(=O)Nc4cccc(F)c4)[nH]n3)ncnc2c1)CCOP(=O)(O)O [barasertib]
Outline: as §1

[7] = compound: CC[C@@H]1C(=O)N(C)c2cnc(Nc3ccc(C(=O)NC4CCN(C)CC4)cc3OC)nc2N1C1CCCC1
Outline: as §1

volasertib = compound: CC[C@@H]1C(=O)N(C)c2cnc(Nc3ccc(C(=O)N[C@H]4CC[C@H](N5CCN(CC6CC6)CC5)CC4)cc3OC)nc2N1C(C)C [volasertib]
Outline: as §1

[8] = compound: CC[C@H](C)N1C=C(C2=C(C=C(C=C21)C3=CN=C(C=C3)N4CCNCC4)C(=O)NCC5=C(C=C(NC5=O)C)C)C
Outline: as §1

epoxomicin = compound: CC[C@H](C)[C@@H](C(=O)N[C@@H]([C@@H](C)O)C(=O)N[C@@H](CC(C)C)C(=O)[C@]1(CO1)C)NC(=O)[C@H]([C@@H](C)CC)N(C)C(=O)C [epoxomicin]
Outline: as §1

[9] = compound: CCn1c(C(=O)N(C2CC2)C2CC2)cc2c3c(ncn3C)c(Nc3cc(C)n(C)n3)nc21
Outline: as §1

[10] = compound: CCn1cc(-c2ccnc3[nH]c(-c4cccc(CN(C)C)c4)cc23)c(-c2ccc(NC(=O)N(C)C)cc2)n1
Outline: as §1

[11] = compound: CN(C)CC(=O)Nc1ccc2[nH]c(=O)c3ccccc3c2c1
Outline: as §1

rosiglitazone = compound: CN(CCOC1=CC=C(C=C1)C[C@H]2C(=O)NC(=O)S2)C3=CC=CC=N3 (racemic) [rosiglitazone]
Outline: as §1

[12] = compound: CN1C2=C(C3=C1C(=O)N(N=C3)CC4=CC(=CC=C4)N)SC(=C2)S(=O)C
Outline: as §1

[13] = compound: CN1CCC(CNc2ccc3ncc(-c4cccc(OC(F)(F)F)c4)n3n2)CC1
Outline: as §1

Measured: log2 fold change

MCM4 (UniProt P33991)
inactive: [1] 0.001 | [2] -0.026 | [3] 0.018 | [4] 0.018 | Nexturastat A -0.059 | vemurafenib 0.015 | [5] 0.045 | [6] -0.031 | givinostat 0.012 | barasertib 0.02 | [7] -0.02 | volasertib -0.079 | [8] 0.034 | epoxomicin 0.025 | [9] 0.009 | [10] -0.062 | [11] 0.032 | rosiglitazone 0.046 | [12] -0.074 | [13] -0.128

MAT2B (UniProt Q9NZL9)
inactive: [1] -0.063 | [2] 0.023 | [3] -0.023 | [4] -0.002 | Nexturastat A -0.064 | vemurafenib -0.012 | [5] -0.056 | [6] -0.036 | givinostat 0.003 | barasertib -0.015 | [7] -0.009 | volasertib 0.016 | [8] -0.027 | epoxomicin 0.009 | [9] 0.004 | [10] -0.004 | [11] 0.01 | rosiglitazone 0 | [12] -0.014 | [13] -0.047

METTL1 (UniProt Q9UBP6)
inactive: [1] -0.032 | [2] -0.065 | [3] -0.026 | [4] 0.036 | Nexturastat A -0.05 | vemurafenib 0.07 | [5] -0.016 | [6] 0.033 | givinostat -0.072 | barasertib 0.014 | [7] -0.003 | volasertib 0.024 | [8] 0.017 | epoxomicin 0.093 | [9] 0.015 | [10] -0.001 | [11] 0.029 | rosiglitazone -0.001 | [12] -0.101 | [13] -0.033

Reprinted from the results shown (2 entries):
MAT2B (UniProt Q9NZL9)
inactive: [1] -0.063 | [2] 0.023 | [3] -0.023 | [4] -0.002 | Nexturastat A -0.064 | vemurafenib -0.012 | [5] -0.056 | [6] -0.036 | givinostat 0.003 | barasertib -0.015 | [7] -0.009 | volasertib 0.016 | [8] -0.027 | epoxomicin 0.009 | [9] 0.004 | [10] -0.004 | [11] 0.01 | rosiglitazone 0 | [12] -0.014 | [13] -0.047

METTL1 (UniProt Q9UBP6)
inactive: [1] -0.032 | [2] -0.065 | [3] -0.026 | [4] 0.036 | Nexturastat A -0.05 | vemurafenib 0.07 | [5] -0.016 | [6] 0.033 | givinostat -0.072 | barasertib 0.014 | [7] -0.003 | volasertib 0.024 | [8] 0.017 | epoxomicin 0.093 | [9] 0.015 | [10] -0.001 | [11] 0.029 | rosiglitazone -0.001 | [12] -0.101 | [13] -0.033

Following part

MCRIP1 (UniProt I3L4Q0)
inactive: [1] -0.027 | [2] -0.029 | [3] -0.007 | [4] 0.031 | Nexturastat A 0.009 | vemurafenib 0.041 | [5] -0.063 | [6] -0.091 | givinostat -0.001 | barasertib -0.012 | [7] 0.012 | volasertib 0.024 | [8] -0.066 | epoxomicin -0.04 | [9] 0.011 | [10] 0.002 | [11] -0.068 | rosiglitazone -0.019 | [12] 0.02 | [13] -0.067

MBLAC2 (UniProt Q68D91)
inactive: [1] 0 | [2] 0.013 | [3] -0.016 | [4] -0.047 | Nexturastat A 0.001 | vemurafenib -0.082 | [5] -0.011 | [6] -0.058 | givinostat 0.045 | barasertib -0.021 | [7] 0.05 | volasertib 0.034 | [8] -0.064 | epoxomicin -0.039 | [9] 0.021 | [10] -0.043 | [11] -0.034 | rosiglitazone -0.022 | [12] -0.027 | [13] 0.115

MCM3 isoform 2 (UniProt P25205)
inactive: [1] 0 | [2] -0.003 | [3] -0.003 | [4] 0.023 | Nexturastat A -0.012 | vemurafenib 0.005 | [5] 0.023 | [6] -0.015 | givinostat -0.002 | barasertib 0.009 | [7] -0.014 | volasertib -0.068 | [8] 0.026 | epoxomicin 0.075 | [9] 0 | [10] -0.058 | [11] 0.006 | rosiglitazone 0.011 | [12] -0.064 | [13] -0.032

MCCC1 (UniProt Q96RQ3)
inactive: [1] 0.021 | [2] -0.055 | [3] -0.012 | [4] -0.004 | Nexturastat A -0.021 | vemurafenib 0.044 | [5] 0.02 | [6] 0.001 | givinostat -0.004 | barasertib 0.017 | [7] -0.014 | volasertib 0.025 | [8] 0.044 | epoxomicin 0.032 | [9] -0.038 | [10] -0.048 | [11] 0.034 | rosiglitazone 0.09 | [12] -0.063 | [13] -0.048

MED14 (UniProt O60244)
inactive: [1] -0.081 | [2] -0.05 | [3] -0.076 | [4] -0.059 | Nexturastat A 0.036 | vemurafenib -0.016 | [5] -0.066 | [6] 0.008 | givinostat 0.036 | barasertib 0.068 | [7] 0.038 | volasertib 0.073 | [8] 0.24 | epoxomicin -0.071 | [9] -0.05 | [10] 0.031 | [11] -0.007 | rosiglitazone 0.068 | [12] 0.085 | [13] 0

MDP1 (UniProt Q86V88)
inactive: [1] -0.031 | [2] -0.033 | [3] 0.038 | [4] -0.033 | Nexturastat A 0.044 | vemurafenib 0 | [5] -0.018 | [6] -0.035 | givinostat -0.028 | barasertib 0.029 | [7] 0.045 | volasertib 0.029 | [8] -0.065 | epoxomicin -0.03 | [9] 0.052 | [10] -0.034 | [11] -0.113 | rosiglitazone -0.061 | [12] 0.016 | [13] 0.127

MIA3 (UniProt Q5JRA6)
inactive: [1] -0.027 | [2] -0.015 | [3] -0.025 | [4] -0.004 | Nexturastat A 0.022 | vemurafenib -0.014 | [5] -0.021 | [6] 0.013 | givinostat -0.006 | barasertib 0.034 | [7] -0.015 | volasertib -0.086 | [8] 0.017 | epoxomicin 0.005 | [9] -0.016 | [10] 0.07 | [11] 0.003 | rosiglitazone -0.039 | [12] 0.043 | [13] 0.019

MAT1A (UniProt Q00266)
inactive: [1] -0.081 | [2] 0.043 | [3] -0.012 | [4] 0.005 | Nexturastat A 0.001 | vemurafenib -0.028 | [5] -0.006 | [6] 0.015 | givinostat -0.064 | barasertib -0.003 | [7] -0.023 | volasertib 0.071 | [8] -0.026 | epoxomicin 0.043 | [9] 0.08 | [10] 0.032 | [11] -0.007 | rosiglitazone -0.014 | [12] -0.004 | [13] -0.01

MECR (UniProt Q9BV79)
inactive: [1] -0.006 | [2] -0.102 | [3] -0.001 | [4] -0.031 | Nexturastat A -0.033 | vemurafenib -0.008 | [5] 0.002 | [6] -0.016 | givinostat -0.039 | barasertib -0.01 | [7] 0.009 | volasertib 0.048 | [8] -0.028 | epoxomicin 0.037 | [9] 0.011 | [10] -0.001 | [11] 0.007 | rosiglitazone -0.005 | [12] -0.135 | [13] -0.028

MCM2 (UniProt P49736)
inactive: [1] -0.006 | [2] 0.002 | [3] 0.003 | [4] 0.075 | Nexturastat A -0.067 | vemurafenib 0.019 | [5] 0.024 | [6] -0.019 | givinostat -0.015 | barasertib 0.006 | [7] -0.001 | volasertib -0.089 | [8] 0.039 | epoxomicin 0.021 | [9] -0.004 | [10] -0.06 | [11] 0.013 | rosiglitazone 0.032 | [12] -0.085 | [13] -0.097

METAP1 (UniProt P53582)
inactive: [1] -0.048 | [2] 0.027 | [3] 0.022 | [4] 0.019 | Nexturastat A -0.022 | vemurafenib 0.001 | [5] 0.003 | [6] -0.016 | givinostat -0.076 | barasertib -0.034 | [7] 0.049 | volasertib 0.009 | [8] 0 | epoxomicin 0.002 | [9] 0.006 | [10] -0.015 | [11] -0.024 | rosiglitazone 0.027 | [12] -0.042 | [13] 0.048

MAZ isoform 2 (UniProt P56270)
inactive: [1] 0.028 | [2] -0.027 | [3] -0.064 | [4] -0.082 | Nexturastat A 0.135 | vemurafenib -0.044 | [5] -0.034 | [6] 0.146 | givinostat -0.081 | barasertib -0.1 | [7] 0.135 | volasertib 0.159 | [8] 0.045 | epoxomicin -0.159 | [9] -0.032 | [10] 0.006 | [11] -0.101 | rosiglitazone -0.084 | [12] 0.118 | [13] 0.207

MCUB (UniProt Q9NWR8)
inactive: [1] 0.047 | [2] 0.008 | [3] 0.009 | [4] 0.116 | Nexturastat A -0.079 | vemurafenib 0.062 | [5] 0.073 | [6] -0.069 | givinostat 0.094 | barasertib 0.085 | [7] -0.175 | volasertib -0.196 | [8] -0.143 | epoxomicin 0.041 | [9] -0.062 | [10] -0.025 | [11] 0.076 | rosiglitazone -0.049 | [12] -0.061 | [13] -0.129

Source: the supplement of paper PMC10849652
